This is one part of the list.
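Further: competitive profiling in live THP-1 cells: cysteine peptides tagged with an iodoacetamide desthiobiotin (IA-DTB) probe, intensity after compound treatment relative to DMSO-treated cells.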

The chains behind the UniProt entries cited, without tags or fusion partners. Where a name states a change or a piece, a line headed by the entry shows the natural chain unless it says otherwise.
UniProt O94817, whole entry: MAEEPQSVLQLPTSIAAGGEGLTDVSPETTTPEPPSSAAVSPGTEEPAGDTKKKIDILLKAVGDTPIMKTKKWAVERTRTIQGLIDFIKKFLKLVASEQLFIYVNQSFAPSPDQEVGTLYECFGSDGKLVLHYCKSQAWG
UniProt P21281, whole entry, looked up: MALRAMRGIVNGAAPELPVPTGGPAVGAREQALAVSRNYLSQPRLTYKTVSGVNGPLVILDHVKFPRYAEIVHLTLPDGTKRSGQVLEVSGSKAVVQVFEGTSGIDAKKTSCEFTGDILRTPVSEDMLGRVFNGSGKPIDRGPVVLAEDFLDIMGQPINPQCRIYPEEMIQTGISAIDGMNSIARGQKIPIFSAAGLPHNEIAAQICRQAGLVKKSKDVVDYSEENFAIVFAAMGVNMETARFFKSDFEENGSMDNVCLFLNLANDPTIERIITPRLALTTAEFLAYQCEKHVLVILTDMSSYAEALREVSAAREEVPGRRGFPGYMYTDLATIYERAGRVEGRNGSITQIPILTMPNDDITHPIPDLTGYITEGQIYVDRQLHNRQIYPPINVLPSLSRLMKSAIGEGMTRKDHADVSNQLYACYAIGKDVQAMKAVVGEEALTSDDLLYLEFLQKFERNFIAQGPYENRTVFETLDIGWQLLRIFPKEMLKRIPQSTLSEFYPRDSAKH
UniProt Q76L83: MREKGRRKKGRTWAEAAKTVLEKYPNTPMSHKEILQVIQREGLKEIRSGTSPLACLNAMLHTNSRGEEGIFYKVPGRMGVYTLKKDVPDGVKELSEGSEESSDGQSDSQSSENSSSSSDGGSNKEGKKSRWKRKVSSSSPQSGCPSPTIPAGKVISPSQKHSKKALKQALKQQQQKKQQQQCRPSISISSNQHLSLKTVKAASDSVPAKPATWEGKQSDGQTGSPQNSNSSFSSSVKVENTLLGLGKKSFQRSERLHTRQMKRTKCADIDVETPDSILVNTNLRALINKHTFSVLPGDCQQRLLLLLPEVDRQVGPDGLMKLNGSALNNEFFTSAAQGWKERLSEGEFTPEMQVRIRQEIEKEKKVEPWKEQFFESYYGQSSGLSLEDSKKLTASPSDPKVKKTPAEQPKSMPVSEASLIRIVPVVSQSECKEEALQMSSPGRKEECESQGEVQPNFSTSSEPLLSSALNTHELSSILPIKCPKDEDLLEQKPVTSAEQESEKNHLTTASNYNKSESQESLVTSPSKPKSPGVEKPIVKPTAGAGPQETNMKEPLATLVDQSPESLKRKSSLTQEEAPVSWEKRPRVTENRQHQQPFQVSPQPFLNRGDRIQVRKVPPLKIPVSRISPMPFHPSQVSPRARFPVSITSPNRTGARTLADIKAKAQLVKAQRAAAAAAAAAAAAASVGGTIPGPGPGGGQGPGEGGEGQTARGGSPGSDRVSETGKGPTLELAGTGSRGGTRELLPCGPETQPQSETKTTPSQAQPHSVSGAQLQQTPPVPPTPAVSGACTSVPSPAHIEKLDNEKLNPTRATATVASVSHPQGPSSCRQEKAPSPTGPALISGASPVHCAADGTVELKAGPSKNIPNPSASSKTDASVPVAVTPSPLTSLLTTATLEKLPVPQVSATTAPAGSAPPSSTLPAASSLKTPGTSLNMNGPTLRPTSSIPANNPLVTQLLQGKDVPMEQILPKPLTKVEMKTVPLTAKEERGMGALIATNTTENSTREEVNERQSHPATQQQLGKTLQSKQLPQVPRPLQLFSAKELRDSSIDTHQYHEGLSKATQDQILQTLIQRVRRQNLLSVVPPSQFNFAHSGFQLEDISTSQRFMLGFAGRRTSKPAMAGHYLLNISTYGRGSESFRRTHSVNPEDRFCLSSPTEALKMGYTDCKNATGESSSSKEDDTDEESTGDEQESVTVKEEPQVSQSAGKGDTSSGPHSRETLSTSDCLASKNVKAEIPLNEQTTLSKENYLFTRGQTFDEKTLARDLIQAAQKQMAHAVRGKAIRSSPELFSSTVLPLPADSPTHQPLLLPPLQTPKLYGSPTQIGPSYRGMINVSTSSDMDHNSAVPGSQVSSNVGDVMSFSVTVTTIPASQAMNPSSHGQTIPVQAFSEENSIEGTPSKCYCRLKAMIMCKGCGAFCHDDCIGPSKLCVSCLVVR
UniProt P98194: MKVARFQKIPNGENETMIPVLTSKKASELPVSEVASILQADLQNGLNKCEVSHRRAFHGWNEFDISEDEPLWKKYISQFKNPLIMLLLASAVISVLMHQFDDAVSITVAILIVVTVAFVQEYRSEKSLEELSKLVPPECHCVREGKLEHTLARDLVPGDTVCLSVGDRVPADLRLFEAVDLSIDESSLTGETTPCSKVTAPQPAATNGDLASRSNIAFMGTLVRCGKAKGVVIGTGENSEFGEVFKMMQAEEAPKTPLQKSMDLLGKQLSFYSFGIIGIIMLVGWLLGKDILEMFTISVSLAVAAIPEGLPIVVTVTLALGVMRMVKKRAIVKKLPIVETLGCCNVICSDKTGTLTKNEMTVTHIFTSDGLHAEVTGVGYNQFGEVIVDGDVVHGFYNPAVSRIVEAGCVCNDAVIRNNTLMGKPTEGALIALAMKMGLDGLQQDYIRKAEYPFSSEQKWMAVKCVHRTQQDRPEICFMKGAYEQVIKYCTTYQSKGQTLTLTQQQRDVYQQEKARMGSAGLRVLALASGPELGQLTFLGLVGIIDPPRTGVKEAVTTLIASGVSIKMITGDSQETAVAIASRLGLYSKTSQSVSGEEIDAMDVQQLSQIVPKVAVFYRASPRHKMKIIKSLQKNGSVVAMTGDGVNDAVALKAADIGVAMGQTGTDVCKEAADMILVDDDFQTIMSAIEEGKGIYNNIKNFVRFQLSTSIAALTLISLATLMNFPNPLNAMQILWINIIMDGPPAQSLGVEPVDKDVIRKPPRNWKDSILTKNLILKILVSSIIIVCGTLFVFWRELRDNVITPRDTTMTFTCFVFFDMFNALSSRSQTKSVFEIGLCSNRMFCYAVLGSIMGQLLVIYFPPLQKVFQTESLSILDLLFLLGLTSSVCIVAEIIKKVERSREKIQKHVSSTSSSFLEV
UniProt Q8IZT6: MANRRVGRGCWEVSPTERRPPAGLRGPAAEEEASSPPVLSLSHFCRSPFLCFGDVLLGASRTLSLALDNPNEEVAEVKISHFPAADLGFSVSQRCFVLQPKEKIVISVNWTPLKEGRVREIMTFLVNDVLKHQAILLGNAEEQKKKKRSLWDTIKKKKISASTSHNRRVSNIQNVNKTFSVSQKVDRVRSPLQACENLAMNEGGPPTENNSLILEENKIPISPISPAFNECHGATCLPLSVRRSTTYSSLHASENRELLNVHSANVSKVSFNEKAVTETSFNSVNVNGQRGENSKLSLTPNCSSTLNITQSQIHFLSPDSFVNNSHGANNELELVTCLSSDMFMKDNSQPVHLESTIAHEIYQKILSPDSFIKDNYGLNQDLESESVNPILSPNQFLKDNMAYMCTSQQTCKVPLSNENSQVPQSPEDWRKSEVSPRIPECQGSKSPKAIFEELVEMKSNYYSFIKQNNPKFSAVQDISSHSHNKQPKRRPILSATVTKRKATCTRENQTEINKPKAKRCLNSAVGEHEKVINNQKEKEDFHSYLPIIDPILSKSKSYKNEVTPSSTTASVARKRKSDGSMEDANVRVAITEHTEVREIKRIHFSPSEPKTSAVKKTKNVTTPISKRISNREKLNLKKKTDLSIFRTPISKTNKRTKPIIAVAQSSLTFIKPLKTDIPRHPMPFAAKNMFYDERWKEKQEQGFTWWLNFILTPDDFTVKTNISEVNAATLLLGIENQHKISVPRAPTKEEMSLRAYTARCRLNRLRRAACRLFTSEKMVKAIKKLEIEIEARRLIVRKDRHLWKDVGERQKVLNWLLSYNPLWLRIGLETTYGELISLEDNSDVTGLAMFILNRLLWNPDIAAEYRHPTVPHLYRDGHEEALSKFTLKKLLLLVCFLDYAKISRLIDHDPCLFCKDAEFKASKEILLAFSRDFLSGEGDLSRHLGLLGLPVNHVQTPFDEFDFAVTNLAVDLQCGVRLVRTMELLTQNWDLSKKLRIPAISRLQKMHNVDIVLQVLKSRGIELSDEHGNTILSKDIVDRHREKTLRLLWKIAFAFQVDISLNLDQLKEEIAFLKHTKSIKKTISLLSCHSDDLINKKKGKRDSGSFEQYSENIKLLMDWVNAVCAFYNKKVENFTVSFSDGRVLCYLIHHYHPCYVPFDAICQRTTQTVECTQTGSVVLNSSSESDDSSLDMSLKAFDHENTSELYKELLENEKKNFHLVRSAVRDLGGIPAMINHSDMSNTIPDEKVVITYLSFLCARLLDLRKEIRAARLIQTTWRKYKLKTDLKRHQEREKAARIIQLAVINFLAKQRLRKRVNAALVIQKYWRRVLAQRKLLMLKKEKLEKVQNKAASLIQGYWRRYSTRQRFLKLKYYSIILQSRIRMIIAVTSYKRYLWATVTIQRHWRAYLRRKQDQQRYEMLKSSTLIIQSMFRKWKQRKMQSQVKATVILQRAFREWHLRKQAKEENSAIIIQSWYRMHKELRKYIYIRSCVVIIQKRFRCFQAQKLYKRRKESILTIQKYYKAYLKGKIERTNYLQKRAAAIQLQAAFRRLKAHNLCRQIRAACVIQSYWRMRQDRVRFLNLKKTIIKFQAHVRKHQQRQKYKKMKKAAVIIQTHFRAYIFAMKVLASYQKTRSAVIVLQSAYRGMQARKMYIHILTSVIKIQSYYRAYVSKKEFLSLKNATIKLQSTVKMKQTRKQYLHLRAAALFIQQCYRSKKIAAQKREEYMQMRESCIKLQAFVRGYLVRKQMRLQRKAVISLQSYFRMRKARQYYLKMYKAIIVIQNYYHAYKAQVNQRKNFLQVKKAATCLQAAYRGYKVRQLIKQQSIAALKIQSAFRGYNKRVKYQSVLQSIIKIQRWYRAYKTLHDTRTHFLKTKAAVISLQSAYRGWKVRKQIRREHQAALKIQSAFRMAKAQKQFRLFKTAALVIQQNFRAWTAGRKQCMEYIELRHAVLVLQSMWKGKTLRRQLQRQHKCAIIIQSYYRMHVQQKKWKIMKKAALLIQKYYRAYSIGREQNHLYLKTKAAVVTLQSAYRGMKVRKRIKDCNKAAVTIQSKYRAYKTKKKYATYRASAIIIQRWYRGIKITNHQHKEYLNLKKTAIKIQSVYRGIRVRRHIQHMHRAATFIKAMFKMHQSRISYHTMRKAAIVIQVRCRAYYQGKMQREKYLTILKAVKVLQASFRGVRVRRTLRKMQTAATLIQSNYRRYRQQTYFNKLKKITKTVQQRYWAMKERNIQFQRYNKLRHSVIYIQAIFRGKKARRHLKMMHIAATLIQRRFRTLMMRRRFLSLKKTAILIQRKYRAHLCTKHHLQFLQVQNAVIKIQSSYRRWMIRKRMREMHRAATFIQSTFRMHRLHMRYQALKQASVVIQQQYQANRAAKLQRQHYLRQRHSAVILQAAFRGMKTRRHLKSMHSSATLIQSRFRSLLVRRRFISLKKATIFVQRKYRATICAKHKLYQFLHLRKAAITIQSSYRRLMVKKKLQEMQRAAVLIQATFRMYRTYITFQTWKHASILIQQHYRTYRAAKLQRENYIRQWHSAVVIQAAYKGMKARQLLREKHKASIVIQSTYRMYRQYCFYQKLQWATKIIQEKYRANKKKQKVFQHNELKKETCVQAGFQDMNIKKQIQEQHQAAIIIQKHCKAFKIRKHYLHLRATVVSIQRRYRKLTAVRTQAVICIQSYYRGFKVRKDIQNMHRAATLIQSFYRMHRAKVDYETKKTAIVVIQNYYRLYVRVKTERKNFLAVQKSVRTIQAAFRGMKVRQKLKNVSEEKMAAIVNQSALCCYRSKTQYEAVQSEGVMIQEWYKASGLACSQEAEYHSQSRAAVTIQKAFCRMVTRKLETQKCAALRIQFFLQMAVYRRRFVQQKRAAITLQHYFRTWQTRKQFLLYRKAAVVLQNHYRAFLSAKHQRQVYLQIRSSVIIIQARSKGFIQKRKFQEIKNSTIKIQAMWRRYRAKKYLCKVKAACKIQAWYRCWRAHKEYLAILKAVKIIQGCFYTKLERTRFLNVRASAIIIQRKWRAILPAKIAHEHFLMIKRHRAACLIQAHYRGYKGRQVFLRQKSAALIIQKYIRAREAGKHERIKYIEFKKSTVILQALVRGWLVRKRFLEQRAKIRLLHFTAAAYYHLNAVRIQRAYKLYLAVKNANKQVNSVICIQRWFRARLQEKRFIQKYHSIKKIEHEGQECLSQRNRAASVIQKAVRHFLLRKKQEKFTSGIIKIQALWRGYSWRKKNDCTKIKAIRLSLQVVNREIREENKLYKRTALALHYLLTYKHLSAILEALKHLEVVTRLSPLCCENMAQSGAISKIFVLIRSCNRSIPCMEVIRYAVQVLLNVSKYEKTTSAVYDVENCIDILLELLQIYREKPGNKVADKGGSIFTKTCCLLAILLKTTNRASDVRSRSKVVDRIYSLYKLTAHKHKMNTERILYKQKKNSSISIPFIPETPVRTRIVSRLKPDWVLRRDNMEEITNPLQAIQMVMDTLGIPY

Compound in the first assay: Cc1cc(ccc1-c1ccccc1)C(=O)N1CCCN(CC1)C(=O)CCl [compound 10]
Briefly: probe-labelled cysteine peptide fold change vs DMSO (competition) (log2 fold change); higher = less target engagement (more negative = stronger competition). The following applies: 10 µM; THP-1; incubation time: 4 h.
Consider “ASCC3_Q8N3C0_1315_HPPHTELLDLQPLPITALGCK (UniProt Q8N3C0)”, for which the “probe-labelled cysteine peptide fold change” value worked out at 0.0925.

With “ATAD2_Q6PL18_1057_DIDLICSNALEYNPDRDPGDR (UniProt Q6PL18)”, the “probe-labelled cysteine peptide fold change” value is 0.188.

In the case of “ASAP1_Q9ULH1_627_TADQTSLHLVDFLVQNCGNLDK (UniProt Q9ULH1)”, the “probe-labelled cysteine peptide fold change” value is -0.0155.

As for “ASS1_P00966_97_YLLGTSLARPCIAR (UniProt P00966)”, the “probe-labelled cysteine peptide fold change” value was -0.131.

As for “ATG4B_Q9Y4P1_189_TSVPCAGATAFPADSDR (UniProt Q9Y4P1)”, the “probe-labelled cysteine peptide fold change” value was found to be 0.00721.

For the target “ATP1B1_P05026_213_YNPNVLPVQCTGK (UniProt P05026)”, the “probe-labelled cysteine peptide fold change” value is -0.334.

Turning to “ATRX_P46100_235_WCAEGGNLICCDFCHNAFCK (UniProt P46100)”, the “probe-labelled cysteine peptide fold change” value stood at 0.0337.

With “ATG7_O95352_235_ITIGVYDPCNLAQYPGWPLR (UniProt O95352)”, the “probe-labelled cysteine peptide fold change” value is -0.184.

As to “ATG12_O94817_134_LVLHYCK (UniProt O94817)”, the “probe-labelled cysteine peptide fold change” value came to 0.129.

As for “ASCC3_Q8N3C0_742_NCGHIPFFFPTQGHDYVLAEK (UniProt Q8N3C0)”, the “probe-labelled cysteine peptide fold change” value turned out to be 0.0317.

Take “ATG4C_Q96DT6_65_TLPAESGCTIEDHVIAGNVEEFRK (UniProt Q96DT6)”: the “probe-labelled cysteine peptide fold change” value was -0.065.

“ATP6V0D1_P61421_335_NIVWIAECIAQR (UniProt P61421)”: the “probe-labelled cysteine peptide fold change” value came to 0.155.

Regarding “ATP1B3_P54709_191_IDCVSK (UniProt P54709)”, the “probe-labelled cysteine peptide fold change” value is -0.102.

In the case of “ATP13A1_Q9HD20_648_LGSTDLCYIAAVK (UniProt Q9HD20)”, the “probe-labelled cysteine peptide fold change” value was -0.103.

On to “ATP6V1B2_P21281_162_GPVVLAEDFLDIMGQPINPQCR (UniProt P21281)”, for which the “probe-labelled cysteine peptide fold change” value was determined as 0.109.

For the target “ASPSCR1_Q9BZE9_109_LQDSFCSGQTLWELLSHFPQIR (UniProt Q9BZE9)”, the “probe-labelled cysteine peptide fold change” value was 0.0375.

For “ASXL2_Q76L83_1225_ETLSTSDCLASK (UniProt Q76L83)”, the “probe-labelled cysteine peptide fold change” value is -0.081.

With “ATP13A1_Q9HD20_410_ATTGLKPVDSGCVAYVLR (UniProt Q9HD20)”, the “probe-labelled cysteine peptide fold change” value came out at 0.133.

As to “ATG2A_Q2TAZ0_811_CSLEVILPSVHIFLPSK (UniProt Q2TAZ0)”, the “probe-labelled cysteine peptide fold change” value worked out at 0.0238.

“ATP1B1_P05026_126_DSAQRDDMIFEDCGDVPSEPK (UniProt P05026)”: the “probe-labelled cysteine peptide fold change” value was -0.185.

Take “ATIC_P31939_287_VCMVYDLYK (UniProt P31939)”: the “probe-labelled cysteine peptide fold change” value is 0.0118.

For “ASCC3_Q8N3C0_2101_GKPESCAVTPR (UniProt Q8N3C0)”, the “probe-labelled cysteine peptide fold change” value is 0.0246.

Take “ATL2_Q8NHH9_293_HIHNCFSNLGCFLLPHPGLK (UniProt Q8NHH9)”: the “probe-labelled cysteine peptide fold change” value was -0.0463.

Take “ASB3_Q9Y575_295_VSPVYSAVFGGHEDCLEILLR (UniProt Q9Y575)”: the “probe-labelled cysteine peptide fold change” value turned out to be 0.0716.

On to “ATG3_Q9NT62_259+264_TVTIENHPHLPPPPMCSVHPCR (UniProt Q9NT62)”, for which the “probe-labelled cysteine peptide fold change” value is -0.121.

“ARSB_P15848_405_IELLHNIDPNFVDSSPCPR (UniProt P15848)”: the “probe-labelled cysteine peptide fold change” value is -0.0177.

Regarding “ATF2_P15336_418_DCPVTAMQK (UniProt P15336)”, the “probe-labelled cysteine peptide fold change” value was -0.418.

In the case of “ATR_Q13535_1343_GCQDANSQAR (UniProt Q13535)”, the “probe-labelled cysteine peptide fold change” value turned out to be 0.175.

Regarding “ATG3_Q9NT62_264_TVTIENHPHLPPPPMCSVHPCR (UniProt Q9NT62)”, the “probe-labelled cysteine peptide fold change” value turned out to be 0.234.

With “ATM_Q13315_2753_LTICTYK (UniProt Q13315)”, the “probe-labelled cysteine peptide fold change” value was 0.0277.

As for “ATG2A_Q2TAZ0_698+715_SELSSGPGPPVPTHLELTCSDLHGIYEDGGKPPVPCLR (UniProt Q2TAZ0)”, the “probe-labelled cysteine peptide fold change” value is -0.184.

Consider “ATP13A3_Q9H7F0_545_SQFVACMATCHSLTK (UniProt Q9H7F0)”, for which the “probe-labelled cysteine peptide fold change” value is 0.0462.

With “ASNA1_O43681_55_TTCSCSLAVQLSK (UniProt O43681)”, the “probe-labelled cysteine peptide fold change” value was found to be 0.15.

For “ATP6V0A1_Q93050_247_ASLYPCPETPQER (UniProt Q93050)”, the “probe-labelled cysteine peptide fold change” value was -0.135.

On to “ATP6V1B2_P21281_258_SDFEENGSMDNVCLFLNLANDPTIER (UniProt P21281)”, for which the “probe-labelled cysteine peptide fold change” value was found to be 0.0783.

On to “ATP2C1_P98194_162_DLVPGDTVCLSVGDRVPADLR (UniProt P98194)”, for which the “probe-labelled cysteine peptide fold change” value was -0.125.

Turning to “ATP2A2_P16615_560_CLALATHDNPLR (UniProt P16615)”, the “probe-labelled cysteine peptide fold change” value came out at 0.0438.

Regarding “ATRX_P46100_605_GADCQEVPQDK (UniProt P46100)”, the “probe-labelled cysteine peptide fold change” value is -0.461.

In the case of “ASPM_Q8IZT6_441_IPECQGSK (UniProt Q8IZT6)”, the “probe-labelled cysteine peptide fold change” value was -0.0773.

The assay is the same for the next values; noted with them: 50 µM; THP-1; incubation time: 4 h.
For the target “ASCC3_Q8N3C0_1315_HPPHTELLDLQPLPITALGCK (UniProt Q8N3C0)”, the “probe-labelled cysteine peptide fold change” value turned out to be 0.138.

Consider “ATAD2_Q6PL18_1057_DIDLICSNALEYNPDRDPGDR (UniProt Q6PL18)”, for which the “probe-labelled cysteine peptide fold change” value was 0.142.

“ASAP1_Q9ULH1_627_TADQTSLHLVDFLVQNCGNLDK (UniProt Q9ULH1)”: the “probe-labelled cysteine peptide fold change” value is -0.0181.

Consider “ASS1_P00966_97_YLLGTSLARPCIAR (UniProt P00966)”, for which the “probe-labelled cysteine peptide fold change” value was -0.067.

Turning to “ATG4B_Q9Y4P1_189_TSVPCAGATAFPADSDR (UniProt Q9Y4P1)”, the “probe-labelled cysteine peptide fold change” value was -0.338.

As for “ATP1B1_P05026_213_YNPNVLPVQCTGK (UniProt P05026)”, the “probe-labelled cysteine peptide fold change” value turned out to be 0.0834.

Consider “ATRX_P46100_235_WCAEGGNLICCDFCHNAFCK (UniProt P46100)”, for which the “probe-labelled cysteine peptide fold change” value was -0.0739.

Regarding “ATG7_O95352_235_ITIGVYDPCNLAQYPGWPLR (UniProt O95352)”, the “probe-labelled cysteine peptide fold change” value was determined as 0.104.

Take “ATG12_O94817_134_LVLHYCK (UniProt O94817)”: the “probe-labelled cysteine peptide fold change” value is 0.11.

With “ASCC3_Q8N3C0_742_NCGHIPFFFPTQGHDYVLAEK (UniProt Q8N3C0)”, the “probe-labelled cysteine peptide fold change” value is 0.122.

Turning to “ATG4C_Q96DT6_65_TLPAESGCTIEDHVIAGNVEEFRK (UniProt Q96DT6)”, the “probe-labelled cysteine peptide fold change” value was -0.309.

For “ATP6V0D1_P61421_335_NIVWIAECIAQR (UniProt P61421)”, the “probe-labelled cysteine peptide fold change” value turned out to be 0.16.

On to “ATP1B3_P54709_191_IDCVSK (UniProt P54709)”, for which the “probe-labelled cysteine peptide fold change” value was 0.0857.

“ATP13A1_Q9HD20_648_LGSTDLCYIAAVK (UniProt Q9HD20)”: the “probe-labelled cysteine peptide fold change” value worked out at 0.0143.

As to “ATP6V1B2_P21281_162_GPVVLAEDFLDIMGQPINPQCR (UniProt P21281)”, the “probe-labelled cysteine peptide fold change” value worked out at 0.268.

Take “ASPSCR1_Q9BZE9_109_LQDSFCSGQTLWELLSHFPQIR (UniProt Q9BZE9)”: the “probe-labelled cysteine peptide fold change” value was -0.373.

Take “ASXL2_Q76L83_1225_ETLSTSDCLASK (UniProt Q76L83)”: the “probe-labelled cysteine peptide fold change” value is -0.199.

With “ATP13A1_Q9HD20_410_ATTGLKPVDSGCVAYVLR (UniProt Q9HD20)”, the “probe-labelled cysteine peptide fold change” value stood at 0.0894.

As for “ATG2A_Q2TAZ0_811_CSLEVILPSVHIFLPSK (UniProt Q2TAZ0)”, the “probe-labelled cysteine peptide fold change” value was -0.0458.

On to “ATP1B1_P05026_126_DSAQRDDMIFEDCGDVPSEPK (UniProt P05026)”, for which the “probe-labelled cysteine peptide fold change” value is -0.351.

“ATIC_P31939_287_VCMVYDLYK (UniProt P31939)”: the “probe-labelled cysteine peptide fold change” value was -0.00423.

As to “ASCC3_Q8N3C0_2101_GKPESCAVTPR (UniProt Q8N3C0)”, the “probe-labelled cysteine peptide fold change” value is -0.0464.

For the target “ATL2_Q8NHH9_293_HIHNCFSNLGCFLLPHPGLK (UniProt Q8NHH9)”, the “probe-labelled cysteine peptide fold change” value is -0.137.

With “ASB3_Q9Y575_295_VSPVYSAVFGGHEDCLEILLR (UniProt Q9Y575)”, the “probe-labelled cysteine peptide fold change” value is -0.785.

Take “ATG3_Q9NT62_259+264_TVTIENHPHLPPPPMCSVHPCR (UniProt Q9NT62)”: the “probe-labelled cysteine peptide fold change” value is -0.716.

Take “ARSB_P15848_405_IELLHNIDPNFVDSSPCPR (UniProt P15848)”: the “probe-labelled cysteine peptide fold change” value was -0.482.

Take “ATF2_P15336_418_DCPVTAMQK (UniProt P15336)”: the “probe-labelled cysteine peptide fold change” value was -0.797.

In the case of “ATR_Q13535_1343_GCQDANSQAR (UniProt Q13535)”, the “probe-labelled cysteine peptide fold change” value is -0.177.

Take “ATG3_Q9NT62_264_TVTIENHPHLPPPPMCSVHPCR (UniProt Q9NT62)”: the “probe-labelled cysteine peptide fold change” value came out at 0.197.

For the target “ATM_Q13315_2753_LTICTYK (UniProt Q13315)”, the “probe-labelled cysteine peptide fold change” value was -0.0362.

On to “ATG2A_Q2TAZ0_698+715_SELSSGPGPPVPTHLELTCSDLHGIYEDGGKPPVPCLR (UniProt Q2TAZ0)”, for which the “probe-labelled cysteine peptide fold change” value is -0.0101.

In the case of “ATP13A3_Q9H7F0_545_SQFVACMATCHSLTK (UniProt Q9H7F0)”, the “probe-labelled cysteine peptide fold change” value was -0.178.

On to “ASNA1_O43681_55_TTCSCSLAVQLSK (UniProt O43681)”, for which the “probe-labelled cysteine peptide fold change” value was -0.0955.

For the target “ATP6V0A1_Q93050_247_ASLYPCPETPQER (UniProt Q93050)”, the “probe-labelled cysteine peptide fold change” value was 0.217.

Consider “ATP6V1B2_P21281_258_SDFEENGSMDNVCLFLNLANDPTIER (UniProt P21281)”, for which the “probe-labelled cysteine peptide fold change” value is -0.174.

Turning to “ATP2C1_P98194_162_DLVPGDTVCLSVGDRVPADLR (UniProt P98194)”, the “probe-labelled cysteine peptide fold change” value is -0.322.

For the target “ATP2A2_P16615_560_CLALATHDNPLR (UniProt P16615)”, the “probe-labelled cysteine peptide fold change” value stood at 0.204.

Consider “ATRX_P46100_605_GADCQEVPQDK (UniProt P46100)”, for which the “probe-labelled cysteine peptide fold change” value is -0.179.

Take “ASPM_Q8IZT6_441_IPECQGSK (UniProt Q8IZT6)”: the “probe-labelled cysteine peptide fold change” value is -0.131.

Values taken from the supplement of paper PMC12067093, “Discovery and optimisation of a covalent ligand for TRIM25 and its application to targeted protein ubiquitination” (Chemical Science, 2025).
